Measured values published in patent US8158851B2, “Transgenic high tryptophan plants” (Monsanto Technology LLC, priority 2002, dated 2012).
At least one read-out could not be matched to a standard name with certainty.

Tested on: Agrobacterium tumefaciens AS
Assay: Anthranilate synthase enzyme assay and kinetic analysis of purified enzymes
Format: biochemical
Settings: purified enzyme from E. coli
Description: Agrobacterium tumefaciens AS wild type and mutant enzymes were expressed in E. coli as described in Example 1. The purification of all the Agrobacterium tumefaciens AS enzymes, including wild type and mutants thereof, was performed at 4° C. The cells (approximate wet weight of 1 g) were suspended in 20 ml of purification buffer (50 mM potassium phosphate, pH 7.3, 10 mM MgCl2, 10 mM 2-mercaptoethanol, 10% glycerol) and lysed by ultrasonication (Branson sonifier Cell Disruptor, W185). Supernatant was collected after centrifugation of the homogenate at 20,000×g for 15 min. The supernatant was subjected to ammonium sulfate fractionation (30 to 65% saturation). […] Fractions containing the enzyme were detected by the developed assay and pooled. […]
The standard assay for Agrobacterium tumefaciens AS was performed at 25° C. in an assay buffer containing 100 mM potassium phosphate, pH 7.0, 10 mM MgCl2, 1 mM dithiothreitol, 200 μM chorismate and 10 mM L-glutamine. […] The formation of anthranilate was directly monitored by the absorbance increase at 320 m for 3 minutes. Initial rate of reaction was calculated as unit absorbance increase per second based on the slope of the absorbance change over the reaction time. […] Kinetic parameters and IC50 of AS were calculated after fitting the data to a non-linear regression program (GraFit).

Row | Molecule | kcat/Km^Cho
1 | F298A (protein, An A. tumefaciens mutant.) MVTIIQDDGAETYETKGGIQVSRKRRPTDYANAIDNYIEKLDSHRGAVFSSNYEYPGRYTRWDTAIVDPPLGISCFGRKMWIEAYNGRGEVLLDFITEKLKATPDLTLGASSTRRLDLTVNEPDRVFTEEERSKIPTVFTALRAIVDLFYSSADSAIGLFGAFGYDLAFQFDAIKLSLARPEDQRDMVLFLPDEILVVDHYSAKAWIDRYDFEKDGMTTDGKSSDITPDPFKTTDTIPPKGDHRPGEYSELVVKAKESFRRGDLFEVVPGQKFMERCESNPSAISRRLKAINPSPYSAFINLGDQEYLVGASPEMFVRVSGRRIETCPISGTIKRGDDPIADSEQILKLLNSKKDESELTMCSDVDRNDKSRVCEPGSVKVIGRRQIEMYSRLIHTVDHIEGRLRDDMDAFDGFLSHAWAVTVTGAPKLWAMRFIEGHEKSPRAWYGGAIGMVGFNGDMNTGLTLRTIRIKDGIAEVRAGATLLNDSNPQEEEAETELKASAMISAIRDAKGTNSAATKRDAAKVGTGVKILLVDHEDSFVHTLANYFRQTGATVSTVRSPVAADVFDRFQPDLVVLSPGPGSPTDFDCKATIKAARARDLPIFGVCLGLQALAEAYGGELRQLAVPMHGKPSRIRVLEPGLVFSGLGKEVTVGRYHSIFADPATLPRDFIITAESEDGTIMGIEHAKEPVAAVQFHPESIMTLGQDAGMRMIENVVVHLTRKAKTKAA | 50000 M⁻¹ s⁻¹
2 | F298W (protein, An A. tumefaciens mutant.) MVTIIQDDGAETYETKGGIQVSRKRRPTDYANAIDNYIEKLDSHRGAVFSSNYEYPGRYTRWDTAIVDPPLGISCFGRKMWIEAYNGRGEVLLDFITEKLKATPDLTLGASSTRRLDLTVNEPDRVFTEEERSKIPTVFTALRAIVDLFYSSADSAIGLFGAFGYDLAFQFDAIKLSLARPEDQRDMVLFLPDEILVVDHYSAKAWIDRYDFEKDGMTTDGKSSDITPDPFKTTDTIPPKGDHRPGEYSELVVKAKESFRRGDLFEVVPGQKFMERCESNPSAISRRLKAINPSPYSWFINLGDQEYLVGASPEMFVRVSGRRIETCPISGTIKRGDDPIADSEQILKLLNSKKDESELTMCSDVDRNDKSRVCEPGSVKVIGRRQIEMYSRLIHTVDHIEGRLRDDMDAFDGFLSHAWAVTVTGAPKLWAMRFIEGHEKSPRAWYGGAIGMVGFNGDMNTGLTLRTIRIKDGIAEVRAGATLLNDSNPQEEEAETELKASAMISAIRDAKGTNSAATKRDAAKVGTGVKILLVDHEDSFVHTLANYFRQTGATVSTVRSPVAADVFDRFQPDLVVLSPGPGSPTDFDCKATIKAARARDLPIFGVCLGLQALAEAYGGELRQLAVPMHGKPSRIRVLEPGLVFSGLGKEVTVGRYHSIFADPATLPRDFIITAESEDGTIMGIEHAKEPVAAVQFHPESIMTLGQDAGMRMIENVVVHLTRKAKTKAA | 24400 M⁻¹ s⁻¹
